These are yes or no findings as the source states them, for the method shown. Binding can be weak; no strength is given.
Molecular target: T1, hypothetical protein SP_1876 (Streptococcus pneumoniae) (UniProt Q97NX5)
T1 sequence: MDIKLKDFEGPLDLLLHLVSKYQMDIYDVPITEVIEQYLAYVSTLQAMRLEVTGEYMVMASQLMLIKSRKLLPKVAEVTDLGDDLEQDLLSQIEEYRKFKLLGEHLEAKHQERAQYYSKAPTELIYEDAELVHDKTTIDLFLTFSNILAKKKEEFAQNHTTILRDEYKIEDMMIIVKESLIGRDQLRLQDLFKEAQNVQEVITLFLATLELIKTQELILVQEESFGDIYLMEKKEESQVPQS
Test: two-hybrid; yeast two-hybrid screens of S. pneumoniae ORFs: Gal4-based (individual baits mated with a pooled prey library, selection on SD -Leu -Trp -His with 0.1 mM 3-AT, 30°C) and LexA-based (hypothetical-protein BD clones against an AD array, two-phased pooled mating); which system found a given pair is not given

- binding: binds
Substance: SP_1247, Chromosome segregation protein (from UniProt A0A0H2UQ93)

— PMC5513735
